# Values from PubChem BioAssay AID602196 (INSERM, 2012).
# Screen: 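Knock-downs that protect lung cancer cells from cisplatin or sensitise them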
# System: human A549 lung cancer cells
# Knock-down reagent: siRNA pair against human genes
# Duration: 48 h transfection before cisplatin; time from cisplatin to read-out not stated
# Conditions: cisplatin at a dose killing half of control-siRNA cells; exact dose and duration not given
# Detection: 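Shift in cisplatin death relative to control siRNA, from -50 (all cells die) to +50 (no cells die); siRNAs harmful on their own scored 0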
# Scale: two-siRNA summed score (-2 to +2): higher = both siRNAs protect from cisplatin killing; -2 means both sensitise; mean protection from cisplatin (shift in death): higher = protection from cisplatin killing
# Rule for the call: 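Each siRNA scores 0 if harmful alone by LDH or WST-1, otherwise +1 if it reduces and -1 if it increases cisplatin killing; a gene is active when both siRNAs agree (sum +2 or -2)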
# Calls: active = both siRNAs shift cisplatin killing the same way; inactive = no consistent shift, or siRNA harmful alone
# Shown is one part, drawn at random, of about 23,000 deposited reagents. In the full data, 455 (2%) got an active call. 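Active includes both protection and sensitisation; some change values fall well beyond the stated -50 to +50 range.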 Unmarked entries are inactive. Not all columns of the deposit are shown. Not given: the amount of reagent.
target gene,two-siRNA summed score (-2 to +2),mean protection from cisplatin (shift in death) (%)
GALNT14,0,-0.6
LOC400877,0,3.9
ABCF1,1,-7.6
TMCO6,0,-4.9
GSG1L,0,7
ZNF502,0,6.5
LOC92659,0,-1.4
THADA,0,11.4
TCFL5,-1,-32.1
TARBP2,-1,-5.3
LOC389832,0,-1.3
LOC442406,-1,-6.9
HMG20B,0,-14.1
LOC402530,0,10.6
GSPT1,0,-0.5
RBAKDN,0,13.8
SEPHS1,0,-3.3
MOSMO,1,13.2
SEPTIN14,1,13.5
FBXL19,0,1.5
CRTAP,0,5.9
PTGER4P2-CDK2AP2P2,0,2.6
FJX1,0,2.1
LOC439971,0,16.1
G6PC2,0,2.8
ASNSD1,0,-15.6
GUF1,0,10.8
LOC387632,1,18
ZNF396,0,-1.8
PEBP1,1,11.9
ZFAND5,1,14.9
LOC441309,0,1.3
LOC387885,0,7.6
LOC440977,0,5.6
SCUBE2,-1,-8
SURF6,1,13.2
TMEM79,1,8
HABP2,0,-1.6
ABCD1,1,14.8

An excerpt from above, limited to “two-siRNA summed score (-2 to +2)”.
LOC441309: 0
LOC387885: 0
LOC440977: 0
SCUBE2: -1
